Reference: PMC6286318, “Structure-function-guided exploration of the antimicrobial peptide polybia-CP identifies activity determinants and generates synthetic therapeutic candidates” (Communications Biology, 2018)
No end group written: not given here.

What follows are substances tested on human red blood cells (assay: Hemolytic activity assay). Conditions: HC50 on human erythrocytes divided by average MIC of twelve strains.
Format: cell-based

Question: How did the “Selectivity index SI = HC50/MIC average” value turn out when “ILGTILGLFKSL-NH2 [Peptide 17, [Phe]^9-Pol-CP-NH2]” was run?
Answer: 2.5

Question: With “ILGTILGLLKSL-NH2 [WT, Pol-CP-NH2, reference compound]” as the substance, how does the “Selectivity index SI = HC50/MIC average” value read?
Answer: 3.1

Question: Which “Selectivity index SI = HC50/MIC average” value does the source give for “ILGTILKLLKSL-NH2 [Peptide 16, [Lys]^7-Pol-CP-NH2]” here?
Answer: 9.2
